Source: the supplement of paper PMC6078165
Values are relative to the signal before dosing, not to a vehicle control; the signal also falls without drug.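 Labels refer to human fibroblasts, largely primary: uterine (C12385, HUF), lung (H6013), bone (Hs27A), adrenal (HADF), skin (WS1), plus mammary HMF and breast cancer-associated Hs343T. Cancer lines are basal-like or mesenchymal-like triple-negative breast cancer. The paper counts as hits responses shifting over 3x the replicate standard deviation. The tissue of the other fibroblasts is not given here.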

Test system: Hs578T
Assay: relative JC-1 red fluorescence (viability) vs pre-drug, coculture with fibroblast (fraction); higher = more viable cancer cells
Experimental: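 JC-1 labelled TNBC cells cocultured 1:1 (1,500 cells each) with CellTrace Violet stained primary or stromal fibroblasts in 384-well plates in FluoroBrite medium, treated with one of 42 anticancer drugs at 0.1, 1, 10 or 100 uM. JC-1 red fluorescence (mitochondrial integrity in cancer cells only) was read by plate reader every 8 h for 72 h. Values are normalised to each well's pre-drug value. The stock of one drug was tenfold lower, so its dose labels may be too high.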

O=C(O)CCCc1ccc(N(CCCl)CCCl)cc1 [Chlorambucil]
relative JC-1 red fluorescence
Conditions | 8 h | 16 h | 24 h | 32 h | 40 h | 48 h | 56 h | 64 h | 72 h
0.1 µM | 0.891 | 0.81 | 0.7498 | 0.714 | 0.648 | 0.607 | 0.58 | 0.544 | 0.53
1 µM | 0.89 | 0.809 | 0.7371 | 0.709 | 0.642 | 0.594 | 0.561 | 0.517 | 0.495

relative JC-1 red fluorescence
Conditions | 8 h | 16 h | 24 h | 32 h | 40 h | 48 h | 56 h | 64 h | 72 h
0.1 µM, coculture fibroblast: C12385 | 0.801 | 0.738 | 0.711 | 0.621 | 0.567 | 0.549 | 0.524 | 0.52 | 0.527
0.1 µM, coculture fibroblast: H6013 | 0.84 | 0.813 | 0.804 | 0.795 | 0.7842 | 0.796 | 0.799 | 0.81 | 0.792
0.1 µM, coculture fibroblast: H6019 | 0.7706 | 0.6757 | 0.6648 | 0.576 | 0.548 | 0.538 | 0.518 | 0.515 | 0.5
0.1 µM, coculture fibroblast: H6076 | 0.914 | 0.853 | 0.791 | 0.761 | 0.719 | 0.716 | 0.7041 | 0.703 | 0.7018
0.1 µM, coculture fibroblast: H6231 | 0.865 | 0.773 | 0.7025 | 0.6563 | 0.585 | 0.5586 | 0.5117 | 0.5027 | 0.4915
0.1 µM, coculture fibroblast: HADF | 0.889 | 0.8279 | 0.764 | 0.717 | 0.682 | 0.663 | 0.641 | 0.639 | 0.624
0.1 µM, coculture fibroblast: HCFa | 0.807 | 0.758 | 0.729 | 0.698 | 0.663 | 0.667 | 0.655 | 0.648 | 0.626
0.1 µM, coculture fibroblast: HCPF | 0.9076 | 0.813 | 0.7489 | 0.71 | 0.654 | 0.624 | 0.605 | 0.5693 | 0.5506
0.1 µM, coculture fibroblast: HHSteC | 0.872 | 0.827 | 0.8 | 0.756 | 0.717 | 0.682 | 0.666 | 0.646 | 0.623
0.1 µM, coculture fibroblast: HMF | 0.8296 | 0.76 | 0.6897 | 0.6611 | 0.611 | 0.584 | 0.553 | 0.534 | 0.532
0.1 µM, coculture fibroblast: HPFa | 0.8549 | 0.794 | 0.743 | 0.703 | 0.68 | 0.661 | 0.633 | 0.614 | 0.573
0.1 µM, coculture fibroblast: HUF | 0.841 | 0.725 | 0.6962 | 0.5925 | 0.5382 | 0.50642 | 0.4784 | 0.466 | 0.458
0.1 µM, coculture fibroblast: Hs27A | 0.878 | 0.836 | 0.8 | 0.76 | 0.71 | 0.705 | 0.678 | 0.683 | 0.648
0.1 µM, coculture fibroblast: Hs343T | 0.8939 | 0.776 | 0.69 | 0.651 | 0.568 | 0.524 | 0.482 | 0.464 | 0.458
0.1 µM, coculture fibroblast: WS1 | 0.796 | 0.729 | 0.723 | 0.6227 | 0.5694 | 0.558 | 0.533 | 0.536 | 0.542
1 µM, coculture fibroblast: C12385 | 0.83634 | 0.723 | 0.634 | 0.544 | 0.463 | 0.422 | 0.39 | 0.374 | 0.363
1 µM, coculture fibroblast: H6013 | 0.9139 | 0.863 | 0.82 | 0.785 | 0.75 | 0.739 | 0.711 | 0.706 | 0.675
1 µM, coculture fibroblast: H6019 | 0.774 | 0.683 | 0.6527 | 0.5572 | 0.515 | 0.49 | 0.451 | 0.43219 | 0.4018
1 µM, coculture fibroblast: H6076 | 0.911 | 0.831 | 0.785 | 0.766 | 0.729 | 0.732 | 0.715 | 0.712 | 0.71
1 µM, coculture fibroblast: H6231 | 0.8914 | 0.7961 | 0.712 | 0.6742 | 0.6053 | 0.5713 | 0.518 | 0.489 | 0.467
1 µM, coculture fibroblast: HADF | 0.9024 | 0.829 | 0.762 | 0.703 | 0.639 | 0.611 | 0.578 | 0.561 | 0.534
1 µM, coculture fibroblast: HCFa | 0.865 | 0.774 | 0.724 | 0.664 | 0.6 | 0.575 | 0.537 | 0.516 | 0.471
1 µM, coculture fibroblast: HCPF | 0.9284 | 0.839 | 0.7803 | 0.7318 | 0.6685 | 0.6454 | 0.6253 | 0.585 | 0.5625
1 µM, coculture fibroblast: HHSteC | 0.872 | 0.791 | 0.703 | 0.639 | 0.566 | 0.528 | 0.498 | 0.471 | 0.432
1 µM, coculture fibroblast: HMF | 0.8951 | 0.7911 | 0.704 | 0.676 | 0.618 | 0.59 | 0.55 | 0.521 | 0.502
1 µM, coculture fibroblast: HPFa | 0.942 | 0.8779 | 0.769 | 0.705 | 0.644 | 0.598 | 0.546 | 0.516 | 0.467
1 µM, coculture fibroblast: HUF | 0.8648 | 0.775 | 0.692 | 0.593 | 0.53 | 0.487 | 0.446 | 0.437 | 0.425
1 µM, coculture fibroblast: Hs27A | 0.883 | 0.834 | 0.793 | 0.75 | 0.706 | 0.696 | 0.658 | 0.65 | 0.609
1 µM, coculture fibroblast: Hs343T | 0.892 | 0.774 | 0.692 | 0.67 | 0.609 | 0.582 | 0.533 | 0.513 | 0.51
1 µM, coculture fibroblast: WS1 | 0.802 | 0.6941 | 0.626 | 0.54 | 0.477 | 0.456 | 0.42 | 0.411 | 0.405
